Results of single-concentration screens

Chains of the proteins cited; added tags and fusions are not shown. Residues count along the entry.
UniProt P9WPC5, whole entry: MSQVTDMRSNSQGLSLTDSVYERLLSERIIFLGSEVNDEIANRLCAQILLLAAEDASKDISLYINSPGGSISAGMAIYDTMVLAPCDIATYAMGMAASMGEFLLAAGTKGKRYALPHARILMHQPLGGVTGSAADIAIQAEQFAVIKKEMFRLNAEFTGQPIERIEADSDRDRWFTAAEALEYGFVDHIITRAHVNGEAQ
UniProt P9WPC3, whole entry partner: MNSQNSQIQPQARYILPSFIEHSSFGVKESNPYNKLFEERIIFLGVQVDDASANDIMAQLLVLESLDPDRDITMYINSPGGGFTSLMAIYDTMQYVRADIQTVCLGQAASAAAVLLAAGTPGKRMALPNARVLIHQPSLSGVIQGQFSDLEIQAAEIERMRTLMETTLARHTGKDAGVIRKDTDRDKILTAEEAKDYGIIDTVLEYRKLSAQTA
UniProt Q8IDJ8, 1-583: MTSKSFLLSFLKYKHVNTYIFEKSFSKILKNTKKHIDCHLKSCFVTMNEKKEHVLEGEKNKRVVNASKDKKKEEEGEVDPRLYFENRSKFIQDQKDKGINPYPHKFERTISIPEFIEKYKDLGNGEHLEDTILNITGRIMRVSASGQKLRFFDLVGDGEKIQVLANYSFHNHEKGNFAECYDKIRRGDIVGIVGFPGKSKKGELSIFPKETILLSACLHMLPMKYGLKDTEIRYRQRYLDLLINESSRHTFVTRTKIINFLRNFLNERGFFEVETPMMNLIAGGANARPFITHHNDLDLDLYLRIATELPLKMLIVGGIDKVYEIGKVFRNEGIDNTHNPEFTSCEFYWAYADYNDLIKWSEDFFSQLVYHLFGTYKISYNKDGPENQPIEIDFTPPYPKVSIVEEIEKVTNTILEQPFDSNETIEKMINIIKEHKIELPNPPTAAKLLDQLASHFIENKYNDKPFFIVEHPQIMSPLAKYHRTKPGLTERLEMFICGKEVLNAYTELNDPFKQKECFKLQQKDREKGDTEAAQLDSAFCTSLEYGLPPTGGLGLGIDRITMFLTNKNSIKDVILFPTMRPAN

Leishmania in macrophages: 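Cell assay of Leishmania donovani living inside macrophages; the read-out is not stated. Concentration: 30 µM. Direction is inferred from retests: higher values go with stronger inhibition. Size under these conditions: about 69,000 compounds, about 1,000 of them at 50% or above in at least one test.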
ClpP1P2: 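ClpP1P2, Mycobacterium tuberculosis (UniProt P9WPC5 and UniProt P9WPC3). Protease assay of ClpP1P2, read by the AMC dye that it sets free. Concentration: 50 µM. Higher reads as stronger inhibition, judged from the few compounds that gave an IC50. Most other retested compounds had strongly negative values. Size under these conditions: about 69,000 compounds, about 10 of them at 50% or above in at least one test.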
Toxoplasma: 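Assay of Toxoplasma gondii numbers, read through their beta-galactosidase reporter with a colour substrate. Concentration: 10 µM. Higher reads as fewer parasites (inferred from which compounds were picked for retests). Of about 67,000 compounds tested this way, about 260 (0.38%) reached 50% or more in at least one test.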
PfKRS1: 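Lysine-tRNA ligase, Plasmodium falciparum 3D7 (UniProt Q8IDJ8). Enzyme assay of the cytosolic lysyl-tRNA synthetase in 384-well plates, read by luminescence. Tested at 30 µM. Higher reads as stronger inhibition, judged from the few compounds that gave an IC50. About 69,000 compounds were tested under these conditions; 0.071% (about 49) showed 50% or more at least once.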

The filed quantity is “Percent Effect” (%).
The controls that fix the scale are not given in the record; negative values are as filed.
Compounds were drawn at random from those tested, without regard to their results.
A dash means the value is not listed here; it may have been measured.

{"compound": "O=S(=O)(CCCc1ccccc1)Cc1nnnn1C1CC1", "Leishmania in macrophages": -2.406, "ClpP1P2": 7.477, "Toxoplasma": 0.4813, "PfKRS1": 5.676}
{"compound": "Cc1ccc(CSc2nc(N)cc(NCCC(N)=O)n2)cc1", "Leishmania in macrophages": 5.462, "ClpP1P2": 0.4655, "Toxoplasma": -2.021, "PfKRS1": 2.086}
{"compound": "O=C(C1SCCc2sccc21)N1CCN(CCO)CC1", "stereo": "centres undefined", "Leishmania in macrophages": -7.988, "ClpP1P2": -3.338, "Toxoplasma": -3.914, "PfKRS1": 0.2529}
{"compound": "CN(C)CC1(O)CCN(C(=O)Cc2ccc3c(c2)CCCC3)C1", "stereo": "centres undefined", "Leishmania in macrophages": -0.5466, "ClpP1P2": -8.278, "Toxoplasma": -5.164, "PfKRS1": 3.465}
{"compound": "Cc1ncsc1C(=O)N(C)Cc1cccnc1", "Leishmania in macrophages": -8.321, "ClpP1P2": 0.2313, "Toxoplasma": 5.164, "PfKRS1": 2.804}
{"compound": "Cc1ccc(C(=O)N2CCC(c3n[nH]c(C4CC4)n3)CC2)cc1F", "Leishmania in macrophages": 25.69, "ClpP1P2": 1.38, "Toxoplasma": -22.21, "PfKRS1": -1.796}
{"compound": "CC(C)N1CCO[C@H]2CN(S(=O)(=O)c3ccc(C#N)cc3)C[C@H]21", "ClpP1P2": 0.2389, "PfKRS1": 5.959}
{"compound": "Cc1cc(C(=O)NC(C)Cc2ccccc2Cl)n(C)n1", "stereo": "centres undefined", "Leishmania in macrophages": -0.1993, "ClpP1P2": -3.911, "Toxoplasma": -12.75, "PfKRS1": 4.821}
{"compound": "O=C(Nc1ccc2c(c1)OCO2)N1CCN(CCn2cccn2)CC1", "Leishmania in macrophages": 31.16, "ClpP1P2": 3.206, "Toxoplasma": -17.61, "PfKRS1": -1.214}
{"compound": "Cn1cc(C2CCCN2C(=O)Cn2ccc3ccccc32)cn1", "stereo": "centres undefined", "Leishmania in macrophages": 12.86, "ClpP1P2": 0.3204, "Toxoplasma": -2.179, "PfKRS1": 4.825}
{"compound": "O=C(O)C(F)(F)F.[H][C@@]12COC[C@]1(CN(C)C)CN(C(=O)c1cc(C)oc1C)C2", "Leishmania in macrophages": 9.877, "Toxoplasma": 4.202}
{"compound": "O=C1NCC2(CCCN(Cc3ccccc3F)C2)Oc2ccccc21", "stereo": "centres undefined", "Leishmania in macrophages": 9.59, "ClpP1P2": -0.4712, "Toxoplasma": 6.086, "PfKRS1": 1.722}
{"compound": "COc1ccc(Br)c(C(=O)NCCNc2ccc(C(F)(F)F)cn2)c1", "Leishmania in macrophages": 56.64, "ClpP1P2": 11.98, "Toxoplasma": -5.375, "PfKRS1": 1.726}
{"compound": "Cn1cc(N2CC3(COCCN(Cc4ccccn4)C3)OCC2=O)cn1.O=C(O)C(F)(F)F", "stereo": "centres undefined", "Leishmania in macrophages": 33.72, "Toxoplasma": 3.389}
{"compound": "Cc1nc2c(c(C)c1CC(=O)NCc1ccc(F)cc1)c(=O)[nH]n2C", "Leishmania in macrophages": -12.71, "ClpP1P2": -20.64, "Toxoplasma": -7.169, "PfKRS1": -1.49}
{"compound": "CCOCC(=O)N1CCC(c2nccn2Cc2cscn2)CC1", "Leishmania in macrophages": -14.6, "ClpP1P2": -16.2, "Toxoplasma": 12.73, "PfKRS1": 5.675}
{"compound": "O=C(c1cccnc1N1CCCCC1)N1CCCC(n2cccn2)C1", "stereo": "centres undefined", "Leishmania in macrophages": -17.63, "ClpP1P2": -22.33, "Toxoplasma": -37.61, "PfKRS1": -1.191}
{"compound": "Cn1cc(CNc2ccc(CCN3CCC(C(N)=O)CC3)cc2)cn1", "Leishmania in macrophages": 0.2113, "ClpP1P2": 6.264, "Toxoplasma": 3.245, "PfKRS1": -2.838}
{"compound": "Cc1nc(-c2cn(CCN)nn2)n(-c2ccc3c(c2)CCC3)n1", "Leishmania in macrophages": -18.48, "ClpP1P2": 3.669, "Toxoplasma": 4.544, "PfKRS1": 9.871}
{"compound": "COCCNc1ccc(-c2noc([C@@H]3CCCN3)n2)cn1", "Leishmania in macrophages": -10.35, "ClpP1P2": 8.354, "Toxoplasma": -8.571, "PfKRS1": -0.3058}
{"compound": "CCCNC(=O)Cn1cc(OC)c(=O)cc1CSc1nc(C)cc(C)n1", "Leishmania in macrophages": 3.31, "ClpP1P2": 7.118, "Toxoplasma": 15.71, "PfKRS1": 1.427}
{"compound": "COc1ccc(C(=O)N2CCC(Nc3ccc(C)nn3)CC2)c(F)c1", "Leishmania in macrophages": 16.19, "ClpP1P2": 0.09801, "Toxoplasma": -3.656, "PfKRS1": 6.363}
{"compound": "Cc1noc(-c2c[nH]nc2C2CCCN2C(=O)c2ccccc2)c1C", "stereo": "centres undefined", "Leishmania in macrophages": 18.79, "ClpP1P2": -11.55, "Toxoplasma": 3.747, "PfKRS1": 1.876}
{"compound": "Cc1cnn(CCNCc2c(C)nn(Cc3ccccc3)c2C)c1", "Leishmania in macrophages": 13.76, "ClpP1P2": -14.65, "Toxoplasma": 9.488, "PfKRS1": -0.7041}
{"compound": "CN(C)C(=O)N1C[C@H]2CCC[C@@]2(COc2ccccn2)C1", "ClpP1P2": -3.581, "PfKRS1": 4.085}
{"compound": "CC(=O)Nc1ncc(S(=O)(=O)Nc2cccc(F)c2)s1", "Leishmania in macrophages": -21.07, "ClpP1P2": 3.987, "Toxoplasma": 67.14, "PfKRS1": 3.643}
{"compound": "COCCN1C[C@H]2CN(Cc3cccc(OC)c3)CCN2C1=O", "ClpP1P2": -1.488, "PfKRS1": 8.644}
{"compound": "O=C(O)C(F)(F)F.O=C(c1ccc2[nH]ccc2c1)N1Cc2nc(CN3CCCCC3)oc2C1", "Leishmania in macrophages": 14.59, "Toxoplasma": -24.92}
{"compound": "COCCCn1c(CN2CCCC(O)C2)cnc1S(=O)(=O)C1CCCC1", "stereo": "centres undefined", "Leishmania in macrophages": 16.19, "ClpP1P2": -7.158, "Toxoplasma": 11.81, "PfKRS1": 2.32}
{"compound": "CC(CNCc1ccc2c(c1)n(C)c(=O)n2C)Oc1ccccn1", "stereo": "centres undefined", "ClpP1P2": 5.739, "PfKRS1": 2.691}

For reference, 3 entries once more:

Compound,Leishmania in macrophages,ClpP1P2,Toxoplasma,PfKRS1
COCCN1C[C@H]2CN(Cc3cccc(OC)c3)CCN2C1=O,-,-1.488%,-,8.644%
COc1ccc(Br)c(C(=O)NCCNc2ccc(C(F)(F)F)cn2)c1,56.64%,11.98%,-5.375%,1.726%
O=C(O)C(F)(F)F.[H][C@@]12COC[C@]1(CN(C)C)CN(C(=O)c1cc(C)oc1C)C2,9.877%,-,4.202%,-

The values are deposited in ChEMBL (CHEMBL3988442, “University of Dundee, Small-Polar-MMV Screening Library” (2021)).